PubChem BioAssay AID686937, Drosophila RNAi Screening Center – 2013

Assay: 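Knock-downs that reduce output of a secreted reporter enzyme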 (primary screen)
System: Drosophila S2 cells expressing secreted horseradish peroxidase
Reagent: long dsRNA against Drosophila genes
Time to read-out: about 5.5 days (5 days dsRNA, then 12 h reporter induction)
Treatment: reporter expression induced after 5 days of dsRNA, read 12 h later; inducer not stated
Read-out: 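After 5 days of dsRNA and 12 h of reporter induction, medium peroxidase read by chemiluminescence and scored as per-plate z-score; higher values mean more reporter released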
Direction: z-score: higher = more reporter secreted into medium
The deposit covers about 23,000 reagents; this is a random part of those with a known target gene and a result. 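Reduced-secretion tags in replicate 1 do not always agree with the z-scores; no criterion for assigning the tags was given.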 A plus sign joins genes that one reagent is predicted to hit. Not stated in the record: the amount of reagent.

| predicted target | dsRNA | z-score, replicate 1 | z-score, replicate 2 | z-score, replicate 3 | z-score, replicate 4 | phenotype, replicate 1 |
| --- | --- | --- | --- | --- | --- | --- |
| CG1231 | DRSC08267 | 0.65 | 0.33 | – | – | – |
| CG6295 | DRSC16012 | 0.23 | 0.35 | – | – | – |
| CSN6 (COP9 signalosome subunit 6) | DRSC16593 | -0.36 | -0.16 | – | – | – |
| SCaMC | DRSC10293 | -0.18 | 0.09 | – | – | – |
| SCaMC | DRSC10415 | 0.47 | -0.06 | – | – | – |
| CG15642 | DRSC19678 | 0.21 | 0.57 | – | – | – |
| CG14383 | DRSC14841 | 0.38 | 0.22 | – | – | – |
| scb (scab) | DRSC05542 | 0.29 | 0.08 | – | – | – |
| scb (scab) | DRSC07678 | 0.35 | 0.34 | – | – | – |
| fd3F (forkhead domain 3F) | DRSC17843 | -3.35 | -1.56 | – | – | reduced secretion |
| CG8778 | DRSC07264 | 0.34 | -0.12 | – | – | – |
| sls (sallimus) | DRSC08528 | 0.16 | 0.19 | – | – | – |
| sls (sallimus) | DRSC08540 | -0.04 | 0.32 | – | – | – |
| sls (sallimus) | DRSC08670 | 0.33 | 0.01 | – | – | – |
| CG31788 | DRSC01630 | 0.08 | -0.08 | – | – | – |
| CG13690 | DRSC00359 | 0.46 | 0.53 | – | – | – |
| CG9920 | DRSC16578 | 0.35 | 0.29 | – | – | – |
| unc-45 (uncoordinated 45) | DRSC15449 | 0.21 | 0.31 | – | – | – |
| SMC5 (Structural maintenance of chromosomes 5) | DRSC11849 | 0.54 | 0.46 | – | – | – |
| CG5327 | DRSC06930 | 0.3 | 0.2 | – | – | – |
| Impbeta11 + asRNA:CR43429 | DRSC07525 | 0.35 | 0.07 | – | – | – |
| CR33319 (pseudo) | DRSC01826 | 0.39 | -4.61 | – | – | – |
| Su(z)12 | DRSC11293 | 0.34 | 0.66 | – | – | – |
| CG5776 | DRSC02891 | 0.47 | 0.41 | – | – | – |
| cnir (cornichon related) | DRSC00499 | 0.3 | 0.44 | – | – | – |
| CG32198 | DRSC09553 | 0.35 | 0.34 | – | – | – |
| CG31523 | DRSC12009 | 0.71 | -0.04 | – | – | – |
| CG31523 | DRSC12337 | 0.39 | 0.38 | 1.1 | 1.21 | – |
| CG18766 | DRSC15936 | 0.34 | 0.45 | – | – | – |
| Axud1 (AXIN1 up-regulated 1) | DRSC00270 | 0.16 | 0.11 | – | – | – |
| PAPLA1 (Phosphatidic Acid Phospholipase A1) | DRSC03095 | 0.25 | 0.35 | – | – | – |
| PAPLA1 (Phosphatidic Acid Phospholipase A1) | DRSC03096 | 0.39 | -0.09 | – | – | – |
| corolla | DRSC20102 | 0.35 | 0.46 | – | – | – |
| mrva (minerva) | DRSC11009 | 0.3 | 0.34 | 0.52 | 0.34 | – |
| mrva (minerva) | DRSC21842 | 1.02 | 0.49 | – | – | – |
| Gr47b (Gustatory receptor 47b) | DRSC05275 | 0.26 | 0.09 | – | – | – |

5 neighbouring reagents from above:
| predicted target | dsRNA | z-score, replicate 1 | z-score, replicate 2 | z-score, replicate 3 | z-score, replicate 4 | phenotype, replicate 1 |
| --- | --- | --- | --- | --- | --- | --- |
| CG5776 | DRSC02891 | 0.47 | 0.41 | – | – | – |
| cnir (cornichon related) | DRSC00499 | 0.3 | 0.44 | – | – | – |
| CG32198 | DRSC09553 | 0.35 | 0.34 | – | – | – |
| CG31523 | DRSC12009 | 0.71 | -0.04 | – | – | – |
| CG31523 | DRSC12337 | 0.39 | 0.38 | 1.1 | 1.21 | – |

Continued:
| predicted target | dsRNA | z-score, replicate 1 | z-score, replicate 2 | z-score, replicate 3 | z-score, replicate 4 | phenotype, replicate 1 |
| --- | --- | --- | --- | --- | --- | --- |
| CR42532 (pseudo) | DRSC06713 | 0.47 | 0.42 | – | – | – |
| Ada1-1 + Ada1-2 | DRSC01220 | 0.97 | 0.73 | – | – | – |
| Ada1-1 + Ada1-2 | DRSC01222 | 0.59 | 0.58 | – | – | – |
| CG7519 | DRSC11834 | 0.41 | 0.19 | – | – | – |
| lolal (lola like) | DRSC06948 | 0.47 | 0.32 | – | – | – |
| mRpS22 (mitochondrial ribosomal protein S22) | DRSC14488 | 0.06 | -0.1 | – | – | – |
| Slob (Slowpoke binding protein) | DRSC02296 | 0.47 | 0.23 | – | – | – |
| Slob (Slowpoke binding protein) | DRSC03436 | 0.23 | 0.26 | – | – | – |
| CG4751 | DRSC02776 | 0.32 | 0.26 | – | – | – |
| Syx13 (Syntaxin 13) | DRSC09836 | 0.31 | 0.4 | – | – | – |
| danr (distal antenna-related) | DRSC14651 | 0.27 | 0.44 | – | – | – |
| sro (shroud) | DRSC14469 | -1.15 | -0.39 | -0.23 | -0.45 | – |
| CG6785 | DRSC02993 | 0.44 | 0.38 | – | – | – |
| mRpL4 (mitochondrial ribosomal protein L4) | DRSC03562 | 0.06 | 0.08 | – | – | – |
| uncNacbeta | DRSC00326 | 0.28 | 0.29 | – | – | – |
| CG11044 | DRSC06026 | 0.14 | 0.09 | – | – | – |
| Pura (Puratrophin-1-like) | DRSC08891 | 0.57 | 0.58 | – | – | – |
| Pura (Puratrophin-1-like) | DRSC10862 | 0.13 | 0.27 | – | – | – |
| Pura (Puratrophin-1-like) | DRSC10864 | 0.33 | 0.29 | – | – | – |
| Pura (Puratrophin-1-like) | DRSC10865 | 0.07 | 0.29 | – | – | – |
| Pura (Puratrophin-1-like) | DRSC10866 | 0.21 | 0.21 | – | – | – |
| fng (fringe) | DRSC11455 | 0.69 | 0.41 | 0.31 | 0.34 | – |
| fng (fringe) | DRSC11887 | -0.23 | -0.44 | – | – | – |
| fng (fringe) | DRSC21935 | 0.37 | 0.06 | – | – | – |
| CG14490 | DRSC06461 | 0.15 | 0 | – | – | – |
| CG13288 | DRSC09962 | 0.41 | 0.3 | – | – | – |
| RanBP3 (Ran binding protein 3) | DRSC14217 | -0.22 | -0.39 | – | – | – |
| CG12229 | DRSC09868 | 0.12 | 0.16 | – | – | – |
| CG15882 | DRSC19735 | 0.49 | 0.3 | – | – | – |
| CG4956 | DRSC15683 | 0.11 | 0.22 | – | – | – |
| nopo (no poles) | DRSC06918 | 0.09 | 0.33 | – | – | – |
| CG31710 | DRSC01089 | 0.5 | 0.31 | 0.44 | 0.38 | – |
| CG31710 | DRSC22863 | 0.68 | 0.43 | – | – | – |
| Trp1 (Translocation protein 1) | DRSC03465 | 0.32 | 0.48 | – | – | – |
| CG10301 | DRSC14226 | 0.42 | 0.26 | – | – | – |
| CG17325 + CG42305 | DRSC02602 | 0.13 | 0.26 | – | – | – |
| Secp43 (tRNA Selenocysteine associated protein) | DRSC00454 | -0.03 | 0.18 | – | – | – |
| BicD (Bicaudal D) | DRSC02006 | 0.01 | 0.17 | – | – | – |
| CG40005 (retired record) + cta | DRSC03763 | 0.61 | 0.32 | – | – | – |
| Kr (Kruppel) | DRSC04622 | 0.25 | 0.28 | – | – | – |
| babos | DRSC03923 | 0.36 | 0.36 | – | – | – |
| babos | DRSC04397 | -0.09 | 0.12 | – | – | – |
| Dic61B (Dynein intermediate chain at 61B) | DRSC08588 | 0 | 0.21 | – | – | – |
| Alk (Anaplastic lymphoma kinase) | DRSC05918 | 0.24 | 0.29 | -0.15 | 0.28 | – |
| Gr59f (Gustatory receptor 59f) | DRSC04499 | 0.23 | 0.26 | – | – | – |
| CG17751 | DRSC15261 | 0.33 | 0.42 | – | – | – |
| CG17751 | DRSC22837 | -0.22 | 0.25 | – | – | – |
